Data on four substances can be found in article PMC12906820.

No constants are given. Whether binding was seen depends on the method and setting. Binding can be weak; no strength is given. Sequences can lack the tags named with a protein. For some of these results: In cells and extracts the contact can be indirect.

The target in experiment [1] is T1, BIS2 fused to the GAL4 DNA-binding domain (BD) (Catharanthus roseus).
T1 sequence: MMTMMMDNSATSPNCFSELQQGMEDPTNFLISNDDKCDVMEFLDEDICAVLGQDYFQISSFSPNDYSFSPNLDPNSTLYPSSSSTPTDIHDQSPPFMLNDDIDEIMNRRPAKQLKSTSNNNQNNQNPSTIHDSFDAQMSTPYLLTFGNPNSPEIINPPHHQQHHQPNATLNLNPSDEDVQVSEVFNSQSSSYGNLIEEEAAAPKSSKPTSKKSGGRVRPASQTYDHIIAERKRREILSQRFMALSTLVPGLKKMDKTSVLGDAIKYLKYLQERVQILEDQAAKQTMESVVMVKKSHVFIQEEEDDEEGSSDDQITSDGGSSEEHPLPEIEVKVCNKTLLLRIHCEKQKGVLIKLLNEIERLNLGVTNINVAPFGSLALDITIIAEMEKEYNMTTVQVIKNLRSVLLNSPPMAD
As to the kind of experiment: two-hybrid; Matchmaker GAL4 system, yeast AH109; BIS2 in pGBKT7 as bait, CrEIL1 in pGADT7 as prey; selective media SD/Leu-/Trp-/His-, SD/Leu-/Trp-/His-/Ade- and with 3-AT; 3 days at 30°C.

Experiment [2] addresses T2, BIS2-GFP (Catharanthus roseus).
T2 sequence: T1 sequence
As to the kind of experiment: co-IP; total protein extracts of N. benthamiana leaves co-infiltrated with BIS2-GFP and CrEIL1-FLAG; Protein G Sepharose, 4°C; blots with anti-GFP and anti-Flag (methods: anti-GFP for the precipitation; legend: anti-FLAG).

The target of experiment [3] is T3, GST-BIS2 protein (Catharanthus roseus).
T3 sequence: T1 sequence
As to the kind of experiment: pull-down; in vitro, recombinant proteins from E. coli; CrEIL1-His pulled down with BIS2-GST, Western blot with anti-His antibody. Background: A western blot detects proteins with antibodies after separation by electrophoresis.

Experiment [4] has as its target T4, CrBIS2–cYFP (Catharanthus roseus).
T4 sequence: T1 sequence
As to the kind of experiment: split reporter; BiFC with split YFP in N. benthamiana leaves after Agrobacterium infiltration; confocal laser microscopy.

Consider “CrEIL1 fused to the GAL4 DNA-activation domain (AD) (Catharanthus roseus)”, for which the binding result in experiment [1] is “binds”.

On to CrEIL1-FLAG (Catharanthus roseus), for which, in experiment [2], the binding entry is on record as “binds”.

In the case of “His-CrEIL1 protein (Catharanthus roseus)”, in experiment [3], the binding result is given as “binds”.

For nYFP–CrEIL1 (Catharanthus roseus), in experiment [4], the binding entry was “binds”.
